These results are taken from the supplement of paper PMC4256282, “Profound Activity of the Anti-cancer Drug Bortezomib against Echinococcus multilocularis Metacestodes Identifies the Proteasome as a Novel Drug Target for Cestodes” (PLoS Neglected Tropical Diseases, 2014).

This test has as its system Echinococcus multilocularis metacestodes. The experiment in a line: vesicle damage (PGI release) relative to positive control DB1127 at 20 µM, DMSO subtracted; higher = more parasite damage. As to conditions: treatment time 5 days.

Where a name gives a salt, the structure may show the parent alone. Some of the results follow. Repeats are few or missing, and single values can be far off.

On to `CNC(=O)c1ccccc1Sc1ccc2c(/C=C/c3ccccn3)n[nH]c2c1` [Axitinib], for which the vesicle damage came to 155%.

As to `Cc1nc2n(c(=O)c1CCN1CCC(c3noc4cc(F)ccc34)CC1)CCCC2O` (centres undefined) [Paliperidone], the vesicle damage was -10.7%.

Take `COc1ccc(-c2nc3cc(C4=NNC(=O)CC4C)ccc3[nH]2)cc1` (centres undefined) [Pimobendan]: the vesicle damage is -2.73%.

In the case of `CC(=O)OCC(=O)[C@@]12OC(C)(C)O[C@@H]1C[C@H]1[C@@H]3C[C@H](F)C4=CC(=O)C=C[C@]4(C)[C@@]3(F)[C@@H](O)C[C@@]12C` [Fluocinonide], the vesicle damage was determined as 0.694%.

With `Cc1cc2c(s1)Nc1ccccc1N=C2N1CCN(C)CC1` [Olanzapine], the vesicle damage was -0.121%.

For the molecule `CNC(=C[N+](=O)[O-])NCCSCc1csc(CN(C)C)n1` [Nizatidine], the vesicle damage was -12.1%.

`N[C@@H]1CCCC[C@H]1N.O=C([O-])C(=O)[O-].[Pt+2]` [Eloxatin]: the vesicle damage amounted to 10.4%.

Turning to `Nc1cc(C(Cl)=C(Cl)Cl)c(S(N)(=O)=O)cc1S(N)(=O)=O` [Clorsulon], the vesicle damage worked out at 6.5%.

For the molecule `Cn1ccnc1S` [Methimazole], the vesicle damage is -2.73%.

As to `OC(Cn1cncn1)(Cn1cncn1)c1ccc(F)cc1F` [Fluconazole], the vesicle damage is -1.35%.

Consider `C#C[C@]1(O)CC[C@H]2[C@@H]3CCC4=CC(=O)CC[C@@H]4[C@H]3CC[C@@]21CC` [Levonorgestrel], for which the vesicle damage was -10.7%.

As for `CN(C)CC/C=C1/c2ccccc2Sc2ccc(Cl)cc21` [Chlorprothixene], the vesicle damage is -0.74%.

Turning to `Cc1ccc(Nc2nccc(N(C)c3ccc4c(C)n(C)nc4c3)n2)cc1S(N)(=O)=O` [Pazopanib Hydrochloride], the vesicle damage is -0.455%.

Consider `O=C1CCc2cc(OCCCCc3nnnn3C3CCCCC3)ccc2N1` [Cilostazol], for which the vesicle damage was -0.703%.

For the molecule `CC(C(=O)O)c1cccc(C(=O)c2ccccc2)c1` (centres undefined) [Ketoprofen], the vesicle damage was -2.46%.

Turning to `CCCc1nc(C)c2c(=O)nc(-c3cc(S(=O)(=O)N4CCN(CC)CC4)ccc3OCC)[nH]n12` [Vardenafil], the vesicle damage came out at 1.96%.

Regarding `CCCc1nn(C)c2c(=O)[nH]c(-c3cc(S(=O)(=O)N4CCN(C)CC4)ccc3OCC)nc12` [Sildenafil citrate], the vesicle damage was -4.96%.

As to `CCCCCCCCCC(=O)N[C@@H](Cc1c[nH]c2ccccc12)C(=O)N[C@H](CC(N)=O)C(=O)N[C@@H](CC(=O)O)C(=O)N[C@@H]1C(=O)NCC(=O)N[C@@H](CCCN)C(=O)N[C@@H](CC(=O)O)C(=O)N[C@H](C)C(=O)N[C@@H](CC(=O)O)C(=O)NCC(=O)N[C@H](CO)C(=O)N[C@@H]([C@H](C)CC(=O)O)C(=O)N[C@@H](CC(=O)c2ccccc2N)C(=O)O[C@@H]1C` [Daptomycin], the vesicle damage was -4.85%.

Consider `CN(C)C(=N)NC(=N)N` [Metformin hydrochloride], for which the vesicle damage was -9.38%.

Take `C[C@H]1[C@H](NC(=O)/C(=N\OC(C)(C)C(=O)O)c2csc(N)n2)C(=O)N1S(=O)(=O)O` [Aztreonam]: the vesicle damage is -4.08%.

As to `O=C(CCCCCCC(=O)Nc1ccccc1)NO` [Vorinostat], the vesicle damage is -3.84%.

Regarding `COc1cccc2c1C(=O)c1c(O)c3c(c(O)c1C2=O)C[C@@](O)(C(C)=O)C[C@@H]3O[C@H]1C[C@H](N)[C@H](O)[C@H](C)O1` [Cerubidine], the vesicle damage was 2.71%.

On to `CNCCCC12CCC(c3ccccc31)c1ccccc12` [Maprotiline hydrochloride], for which the vesicle damage was -6.88%.

For `CC(C)c1nc(CN(C)C(=O)N[C@H](C(=O)N[C@@H](Cc2ccccc2)C[C@H](O)[C@H](Cc2ccccc2)NC(=O)OCc2cncs2)C(C)C)cs1` [Ritonavir], the vesicle damage stood at 5.58%.

Turning to `Clc1cccc(Cl)c1NC1=NCCN1` [Clonidine hydrochloride], the vesicle damage was 0.97%.

For `Oc1ccc(OCc2ccccc2)cc1` [Monobenzone], the vesicle damage is -1.09%.

For `O=C(O)/C=C/c1ccc(Cn2ccnc2)cc1` [Ozagrel], the vesicle damage is -2.11%.

For `Oc1c(Cl)cc(Cl)c2cccnc12` [Chloroxine], the vesicle damage was -7.09%.

Regarding `NC(=O)c1cn(Cc2c(F)cccc2F)nn1` [Rufinamide], the vesicle damage is -1.69%.

Turning to `O=C1c2c(O)ccc(O)c2C(=O)c2c(NCCNCCO)ccc(NCCNCCO)c21` [Mitoxantrone], the vesicle damage was -0.903%.

Turning to `C[C@@H]1C/C=C/C=C/C=C/C=C/[C@H](O[C@@H]2O[C@H](C)[C@@H](O)[C@H](N)[C@@H]2O)C[C@@H]2O[C@](O)(C[C@@H](O)C[C@H]3O[C@@H]3/C=C/C(=O)O1)C[C@H](O)[C@H]2C(=O)O` [Natamycin], the vesicle damage turned out to be 1.87%.

Take `CCCCN1CCCCC1C(=O)Nc1c(C)cccc1C` (centres undefined) [Bupivacaine hydrochloride]: the vesicle damage is 5.22%.

Consider `NC12CC3CC(CC(C3)C1)C2` [Amantadine hydrochloride], for which the vesicle damage is 0.831%.

`C[C@]12CC[C@H](O)CC1=CC[C@@H]1[C@@H]2CC[C@]2(C)C(c3cccnc3)=CC[C@@H]12` [Abiraterone]: the vesicle damage was -5.27%.

In the case of `COc1c(N2CCNC(C)C2)c(F)cc2c(=O)c(C(=O)O)cn(C3CC3)c12` (centres undefined) [Gatifloxacin], the vesicle damage is -2.21%.

As to `CC(C)(C#N)c1cc(Cn2cncn2)cc(C(C)(C)C#N)c1` [Anastrozole], the vesicle damage was -0.238%.

For the molecule `CCN(CC)C(=S)SSC(=S)N(CC)CC` [Disulfiram], the vesicle damage is -1.51%.

Consider `CC(C)NCC(O)c1ccc(O)c(O)c1` (centres undefined) [Isoprenaline hydrochloride], for which the vesicle damage was -0.181%.

Turning to `Cc1nnc(C(C)C)n1C1C[C@H]2CC[C@@H](C1)N2CC[C@H](NC(=O)C1CCC(F)(F)CC1)c1ccccc1` (stereo in doubt) [Maraviroc], the vesicle damage was -8.48%.
